Measured values as given in patent US20260226095A1.
Results are given in words; binding and its absence hold for the method and conditions named. Some entries that bind do so weakly or less than the wild type.

Chains of the proteins cited; added tags and fusions are not shown.
UniProt Q04609: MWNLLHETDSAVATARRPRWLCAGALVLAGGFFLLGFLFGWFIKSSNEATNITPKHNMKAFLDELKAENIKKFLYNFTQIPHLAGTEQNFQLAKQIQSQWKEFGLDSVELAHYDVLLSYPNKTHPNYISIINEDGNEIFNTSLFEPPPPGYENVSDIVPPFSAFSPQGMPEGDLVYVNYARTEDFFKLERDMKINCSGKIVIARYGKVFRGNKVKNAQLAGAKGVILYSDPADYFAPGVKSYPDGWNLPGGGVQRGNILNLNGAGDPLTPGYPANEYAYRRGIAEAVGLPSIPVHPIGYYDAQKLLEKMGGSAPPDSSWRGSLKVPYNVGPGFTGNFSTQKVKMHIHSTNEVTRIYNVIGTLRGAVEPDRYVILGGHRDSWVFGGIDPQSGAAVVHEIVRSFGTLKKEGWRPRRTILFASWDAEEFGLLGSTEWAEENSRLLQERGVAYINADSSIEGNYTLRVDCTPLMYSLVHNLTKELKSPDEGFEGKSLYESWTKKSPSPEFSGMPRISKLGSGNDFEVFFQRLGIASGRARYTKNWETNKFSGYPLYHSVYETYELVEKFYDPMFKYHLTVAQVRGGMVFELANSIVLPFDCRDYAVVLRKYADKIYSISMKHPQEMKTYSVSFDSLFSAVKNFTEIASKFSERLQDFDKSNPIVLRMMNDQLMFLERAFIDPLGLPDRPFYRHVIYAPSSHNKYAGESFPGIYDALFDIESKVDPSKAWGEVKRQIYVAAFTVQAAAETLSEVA

Assays:
[1] = biological target: antigen of scFv Ab1 on PC3-PIP (positive) cells (UniProt Q04609); assay: flow cytometry on PC3-PIP cells, scFv at 10 µg/ml, anti-His detection
[2] = biological target: antigen of scFv Ab1 on PC3-PIP (positive) cells (UniProt Q04609); assay: flow cytometry on PC3-PIP (positive) cells, scFv at 10 µg/ml, anti-His tag and anti-mouse IgG-Alexa488
[3] = biological target: antigen of scFv Ab1 on PC3-PIP (positive) cells (UniProt Q04609); assay: ELISA on fixed PC3-PIP cells, scFv 2.5 to 0.0025 µg/ml, anti-His detection
[4] = biological target: antigen of scFv Ab1 on PC3-PIP (positive) cells (UniProt Q04609); assay: ELISA on fixed PC3-PIP (positive) cells, anti-His tag and HRP anti-mouse IgG

Measured: binding

B1: scFv Ab1 RREF (scFv, not shown: small tags and cut ends)
scFv: EVKLQESGPGLVKPSQSLSLTCSVTGYSITSGYYWNWIRQFPGNKLEWMGSISFDGNNNYNPSLRNRISITRDTSKNQFFLKLNSVTTEDTATYYCAREGDYYGSSFFTYWGQGTLVTVSSGGGGSGGGGSGGGGSALDIVMTQSPASLSASVGETVTLTCGASENIYGALNWYQRKQGKSPQLLIYGATNLADGMSSRFSGSGSGRQYSLKISSLHPDDVATYYCQNVFRTYTFGGGTKLEIKRAAAHHHHHH
binds: all assays above
